Experimental findings from PubChem BioAssay AID236 (DTP/NCI, 2004) are described below.

The list does not hold the whole screen: it gathers tests that were run many times, whatever their T/C, doses with no T/C, and many T/C values between a quarter and a half above the control. Other doses and runs of a compound stand elsewhere. T/C: endpoint of the treated group in % of that of the vehicle group. Some entries give survivors of the animals treated and no T/C: the source files T/C as zero there, which appears to mark a toxic dose or a test without result, not a measured value. Some survivor counts are full or nearly so, which does not show that the dose was tolerated: survival well below the control is almost never listed, so the zero probably covers shortened survival too. Survivors were counted at the toxicity check, usually on the fifth day, unless a day is given; later deaths do not show. Schedules are NCI's codes, read here as Q, the interval in days (D) or hours (H), X, the number of doses. Some schedule codes hold Z or #, which are not explained here. Some doses were run more than once; their values stand side by side, smallest first. Where survival is the endpoint, the PubChem record calls one and a half times the control and up active, and a quarter to a half above the control has no call in these data; cut-offs in other NCI protocols can differ. Some T/C values are followed by the survivors on the day toxicity was checked, most often the fifth; where none is given, no animal had died by that day.

The experiment has as its system AK4 lymphoid leukemia ip, C3AKF1 mice, survival. Description: NCI In Vivo Anticancer Drug Screen. Data for tumor model AK4 Lymphoid Leukemia (intraperitoneal) in C3AKF1 (CHKRF1) mice. The conditions noted are these: T/C endpoint: median survival time, higher T/C = longer survival. On the procedure:
The antitumor activity of compounds was measured in mice bearing transplantable tumors. Survival or tumor size were measured and the results are expressed as the measurement made in the treated group (T) divided by the measurement made in the vehicle treated control group (C). The tumor model used in this assay is AK4 Lymphoid Leukemia (intraperitoneal) in C3AKF1 (CHKRF1) mice

Where [1] appears, read: dose: 2.5 mg/kg/injection, schedule: Q01DX010 (ip), vehicle: saline.
The mark [2] stands for this setting: dose: 5.0 mg/kg/injection, schedule: Q01DX010 (ip), vehicle: saline.
[3] abbreviates: dose: 12.5 mg/kg/injection, schedule: Q01DX010 (sc), vehicle: steroid suspending solution.
[4] abbreviates: dose: 25.0 mg/kg/injection, schedule: Q01DX010 (sc), vehicle: steroid suspending solution.
The mark [5] stands for this setting: dose: 200.0 mg/kg/injection, schedule: Q01DX010 (ip), vehicle: saline.
The mark [6] stands for this setting: dose: 50.0 mg/kg/injection, schedule: Q01DX010 (ip), vehicle: saline.
The mark [7] stands for this setting: dose: 100.0 mg/kg/injection, schedule: Q01DX010 (ip), vehicle: saline.
[8] abbreviates: dose: 8.0 mg/kg/injection, schedule: Q01DX010 (ip), vehicle: saline.
Where [9] appears, read: dose: 16.0 mg/kg/injection, schedule: Q01DX010 (ip), vehicle: saline.
Where [10] appears, read: dose: 27.0 mg/kg/injection, schedule: Q01DX010 (ip), vehicle: saline.
The mark [11] stands for this setting: dose: 40.0 mg/kg/injection, schedule: Q01DX010 (ip), vehicle: saline.
Setting [12] is: dose: 400.0 mg/kg/injection, schedule: Q01DX010 (ip), vehicle: saline.
Setting [13] is: dose: 1000.0 micrograms/kg/injection, schedule: Q01DX010 (ip), vehicle: saline.
Setting [14] is: dose: 12.5 mg/kg/injection, schedule: Q01DX010 (ip), vehicle: saline.
Setting [15] is: dose: 25.0 mg/kg/injection, schedule: Q01DX010 (ip), vehicle: saline.

As for `Nc1nc(=S)c2[nH]cnc2[nH]1`, the T/C was 128 % of control (dose: 5.0 mg/kg/injection, schedule: Q01DX010 (ip), vehicle: other) and 135 % of control (dose: 10.0 mg/kg/injection, schedule: Q01DX010 (ip), vehicle: other).
With `O=C(O)c1[nH]c(=O)[nH]c(=O)c1F`, the T/C is 138 % of control under setting [1]; 127 and 133 % of control under setting [2].
Take `CC(=O)O[C@]1(C(C)=O)CC[C@H]2[C@@H]3C[C@H](C)C4=CC(=O)C=C[C@]4(C)[C@@]3(F)[C@@H](O)C[C@@]21C`: the survivor count reads like this: under setting [3], 6 of 6; under setting [4], 6 of 6; (dose: 50.0 mg/kg/injection, schedule: Q01DX010 (sc), vehicle: steroid suspending solution) 6 of 6.
Consider `O=[n+]1c2c(n([O-])c3ccccc31)-c1cccc3cccc-2c13`, for which the survivor count under setting [5] was 6 of 6.
Consider `Cc1cc2nc3c(=O)[nH]c(=O)nc-3n(CC(O)C(O)C(O)C(O)CO)c2cc1C` (stereo not drawn), for which the survivor count under setting [6] was 6 of 6 and the survivor count under setting [7] is 6 of 6.
For `C[C@]12C=CC(=O)C=C1CC[C@@H]1[C@@H]2[C@@H](O)C[C@@]2(C)[C@H]1CC[C@]2(O)C(=O)CO`, the survivor count under setting [4] is 6 of 6.
For `O=C(Nc1ccc(NC2=NCCN2)cc1)c1ccc(C(=O)Nc2ccc(NC3=NCCN3)cc2)cc1`, the T/C by setting is: under setting [8], 130 % of control; under setting [9], 135 % of control.
`COc1ccc2c(c1OC)C(=O)O[C@@H]2[C@H]1c2c(cc3c(c2OC)OCO3)CCN1C`: for the setting “dose: 62.5 mg/kg/injection, schedule: Q01DX010 (ip), vehicle: saline”, the survivor count is 6 of 6.
Turning to `O[C@H](CN1CC1)[C@@H](O)CN1CC1`, the T/C (dose: 125.0 micrograms/kg/injection, schedule: Q01DX010 (ip), vehicle: saline) was 129 % of control and the T/C (dose: 500.0 micrograms/kg/injection, schedule: Q01DX010 (ip), vehicle: saline) is 147 % of control.
For the compound `CN(C)c1ccc(/C=C\c2ccnc3ccccc23)cc1`, the survivor count is, setting by setting: (dose: 12.0 mg/kg/injection, schedule: Q01DX010 (ip), vehicle: saline) 6 of 6; (dose: 18.0 mg/kg/injection, schedule: Q01DX010 (ip), vehicle: saline) 6 of 6; under setting [10], 6 of 6; under setting [11], 6 of 6.
In the case of `O=C(Nc1ccc(C2=NCCN2)cc1)c1ccc(C(=O)Nc2ccc(C3=NCCN3)cc2)c([N+](=O)[O-])c1`, the survivor count (dose: 6.0 mg/kg/injection, schedule: Q01DX010 (ip), vehicle: saline) is listed as 0 of 6.
For `C=CC(CN1CC1)OC(C)=O` (stereo not drawn), under setting [9], the survivor count is given as 6 of 6.
`CC(CCC(C)OS(C)(=O)=O)OS(C)(=O)=O` (stereo not drawn): the T/C under setting [9] was 127 % of control.
As to `CS(=O)(=O)OCC(O)C(O)C(O)C(O)COS(C)(=O)=O` (stereo not drawn), the survivor count under setting [6] is listed as 4 of 7.
`CN(N=O)C(=O)NC(C=O)C(O)C(O)C(O)CO` (stereo not drawn): the T/C was 125 % of control under setting [10] and 143 % of control under setting [11].
In the case of `C#CCN(C)Cc1ccccc1`, under setting [12], the survivor count was 0 of 6.
As for `CCN(CC)CCNc1ccc(C)c2sc3ccccc3c(=O)c12`, under setting [6], the T/C was 138 % of control. Under setting [5], the survivor count is on record as 6 of 6.
Turning to `CS(=O)(=O)OCCCl`, the T/C (dose: 150.0 mg/kg/injection, schedule: Q01DX010 (ip), vehicle: saline) was 137 % of control.
For `CC(=O)NC1=C(N2CC2)C(=O)C(NC(C)=O)=C(N2CC2)C1=O`, the survivor count (dose: 4.0 mg/kg/injection, schedule: Q01DX010 (ip), vehicle: saline) is listed as 6 of 6. The T/C under setting [13] was 144 % of control.
Turning to `Nc1c(Br)cc2c(c1Br)Cc1cc([N+](=O)[O-])ccc1-2`, the survivor count (dose: 500.0 mg/kg/injection, schedule: Q01DX010 (ip), vehicle: saline) was 6 of 6.
As to `CN(Cc1cnc2nc(N)nc(N)c2n1)c1ccc(C(=O)N[C@@H](CCC(=O)O)C(=O)O)cc1`, the T/C reads like this: (dose: 0.19 mg/kg/injection, schedule: Q01DX Z (ip), vehicle: saline) 133 % of control; (dose: 0.38 mg/kg/injection, schedule: Q01DX Z (ip), vehicle: saline) 144 % of control; (dose: 1.5 mg/kg/injection, schedule: Q01DX Z (ip), vehicle: saline) 144 and 146 % of control; (dose: 3.0 mg/kg/injection, schedule: Q01DX010 (ip), vehicle: other) 131 % of control [4 of 6 alive]. Further, under “dose: 3.0 mg/kg/injection, schedule: Q01DX Z (ip), vehicle: saline”, the survivor count is 3 of 6 and 6 of 6.
Regarding `CSCS(=O)C[C@H](CO)NC(=O)/C=C/c1c(C)[nH]c(=O)[nH]c1=O` (stereo partly drawn), the survivor count under setting [13] is recorded as 6 of 6.
`S=c1nc[nH]c2nc[nH]c12`: the T/C was 125 % of control (dose: 5.0 mg/kg/injection, schedule: Q01DX010 (ip), vehicle: alkali diluted with saline) and 131 % of control (dose: 80.0 mg/kg/injection, schedule: Q01DX010 (ip), vehicle: alkali diluted with saline). The survivor count (dose: 5.0 mg/kg/injection, schedule: Q01DX Z (ip), vehicle: saline) is on record as 6 of 6.
Consider `N=[N+]=CC(=O)OCC(N)C(=O)O` (stereo not drawn), for which the T/C reads like this: (dose: 3.13 mg/kg/injection, schedule: Q01DX010 (ip), vehicle: saline) 130 % of control; (dose: 6.25 mg/kg/injection, schedule: Q01DX010 (ip), vehicle: saline) 127 and 140 % of control; under setting [14], 130 % of control.
In the case of `O=c1c(O)cccc2cc(O)c(O)c(O)c12`, the survivor count is given as 6 of 6 under setting [6], 6 of 6 under setting [7] and 6 of 6 under setting [5].
Consider `Oc1cc(CN(CCCl)CCCl)c(O)cc1CN(CCCl)CCCl`, for which the T/C (dose: 1.25 mg/kg/injection, schedule: Q01DX010 (ip), vehicle: saline) was 125 % of control; the T/C under setting [1] is 125 % of control; the T/C under setting [2] was 125 % of control.
Turning to `C[C@]12C=CC(=O)C=C1CC[C@@H]1[C@@H]2C(=O)C[C@@]2(C)[C@H]1CC[C@]2(O)C(=O)CO`, the survivor count is reported as 6 of 6 under setting [3]; 6 of 6 (dose: 12.5 mg/kg/injection, schedule: Q01DX Z (sc), vehicle: steroid suspending solution); 6 of 6 under setting [4]; 6 of 6 (dose: 25.0 mg/kg/injection, schedule: Q01DX Z (sc), vehicle: steroid suspending solution). Moreover, the T/C (dose: 100.0 mg/kg/injection, schedule: Q01DX Z (sc), vehicle: steroid suspending solution) was 126 % of control.
Consider `C[n+]1c2ccccc2nc2c(N)cc(N)cc21`, for which the survivor count under setting [11] is on record as 0 of 6.
For the compound `C1CN1c1nc(N2CC2)nc(N2CC2)n1`, the survivor count (dose: 2.0 mg/kg/injection, schedule: Q01DX010 (ip), vehicle: saline) was 0 of 6.
Turning to `O=C(Nc1ccc(C2=NCCN2)cc1)c1cccc(C(=O)Nc2ccc(C3=NCCN3)cc2)c1`, the T/C under setting [8] was 130 % of control.
As for `CN(C)/N=N/c1nc[nH]c1C(N)=O`, the T/C was 133 % of control under setting [15] and 138 % of control under setting [12].
Take `O=C(O)CCCc1ccc(N(CCCl)CCCl)cc1`: the T/C under setting [14] was 127 % of control. Besides, the survivor count under setting [15] is recorded as 0 of 6.
As for `CN1CC[C@]23c4c5ccc(O)c4O[C@H]2C(=O)CC[C@H]3[C@H]1C5`, the survivor count by setting is: under setting [9], 6 of 6; (dose: 32.0 mg/kg/injection, schedule: Q01DX010 (ip), vehicle: saline) 6 of 6.
With `O=CN(O)CC(=O)O`, the survivor count is listed as 6 of 6 (dose: 125.0 mg/kg/injection, schedule: Q01DX010 (ip), vehicle: saline) and 6 of 6 (dose: 250.0 mg/kg/injection, schedule: Q01DX010 (ip), vehicle: saline).
As for `C[C@H]1C(=O)O[C@@H]2CCN3CC=C(COC(=O)[C@](C)(O)[C@@]1(C)O)[C@H]23`, the T/C under setting [15] was 129 % of control.
